Source: PMC7564595
Results are given in words; binding and its absence hold for the method and conditions named. Binding seen in cells or lysates may run through a third protein. A yes stands for co-enrichment or nearness to the bait. Other partners may have been found. Where a sequence is shown, tags or fusion partners need not be part of it.

Sequences of proteins named here, by UniProt entry; tags and fusion partners are left off. A change or cut given only in a name is not applied to a line headed by its entry. Residues count along the entry.
UniProt P25705, residues 44-553: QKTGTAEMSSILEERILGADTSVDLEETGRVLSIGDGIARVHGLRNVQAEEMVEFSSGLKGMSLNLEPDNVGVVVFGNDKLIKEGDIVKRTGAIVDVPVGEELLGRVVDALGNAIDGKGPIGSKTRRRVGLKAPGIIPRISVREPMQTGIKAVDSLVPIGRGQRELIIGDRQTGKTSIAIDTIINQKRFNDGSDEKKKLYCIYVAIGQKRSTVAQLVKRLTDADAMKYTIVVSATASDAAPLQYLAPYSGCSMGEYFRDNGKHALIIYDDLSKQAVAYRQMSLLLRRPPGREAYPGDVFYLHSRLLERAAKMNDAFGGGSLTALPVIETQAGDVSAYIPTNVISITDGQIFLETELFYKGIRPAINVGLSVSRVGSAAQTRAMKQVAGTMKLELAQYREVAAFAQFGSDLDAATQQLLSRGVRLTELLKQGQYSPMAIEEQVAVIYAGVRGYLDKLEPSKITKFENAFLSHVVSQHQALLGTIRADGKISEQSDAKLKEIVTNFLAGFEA
UniProt P14735: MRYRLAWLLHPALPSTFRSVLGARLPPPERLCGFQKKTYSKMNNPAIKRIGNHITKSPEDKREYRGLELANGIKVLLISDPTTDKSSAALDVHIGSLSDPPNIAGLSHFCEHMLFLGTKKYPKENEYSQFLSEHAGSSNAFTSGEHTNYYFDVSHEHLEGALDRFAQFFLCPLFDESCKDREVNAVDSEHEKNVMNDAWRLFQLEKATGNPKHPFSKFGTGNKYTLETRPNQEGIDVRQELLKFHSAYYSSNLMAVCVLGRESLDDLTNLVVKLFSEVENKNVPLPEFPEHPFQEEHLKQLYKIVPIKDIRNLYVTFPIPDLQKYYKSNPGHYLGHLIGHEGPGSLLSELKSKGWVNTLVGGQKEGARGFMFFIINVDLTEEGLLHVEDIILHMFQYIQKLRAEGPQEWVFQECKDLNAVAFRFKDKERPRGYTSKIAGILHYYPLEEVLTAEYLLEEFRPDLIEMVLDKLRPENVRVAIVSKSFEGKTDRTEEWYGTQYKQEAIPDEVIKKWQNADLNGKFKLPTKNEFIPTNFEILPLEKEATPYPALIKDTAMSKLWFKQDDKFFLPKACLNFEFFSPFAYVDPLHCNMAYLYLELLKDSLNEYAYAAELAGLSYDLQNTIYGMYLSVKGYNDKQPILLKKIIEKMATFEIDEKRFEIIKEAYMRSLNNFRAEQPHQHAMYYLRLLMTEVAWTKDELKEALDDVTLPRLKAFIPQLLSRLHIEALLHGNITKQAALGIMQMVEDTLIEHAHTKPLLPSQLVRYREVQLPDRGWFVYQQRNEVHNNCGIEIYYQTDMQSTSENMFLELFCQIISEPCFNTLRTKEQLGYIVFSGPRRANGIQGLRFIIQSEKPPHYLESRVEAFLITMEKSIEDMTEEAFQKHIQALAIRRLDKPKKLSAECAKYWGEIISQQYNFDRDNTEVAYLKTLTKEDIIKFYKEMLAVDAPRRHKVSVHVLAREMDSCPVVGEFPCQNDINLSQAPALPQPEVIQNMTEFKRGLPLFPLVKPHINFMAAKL
UniProt Q9UBN7: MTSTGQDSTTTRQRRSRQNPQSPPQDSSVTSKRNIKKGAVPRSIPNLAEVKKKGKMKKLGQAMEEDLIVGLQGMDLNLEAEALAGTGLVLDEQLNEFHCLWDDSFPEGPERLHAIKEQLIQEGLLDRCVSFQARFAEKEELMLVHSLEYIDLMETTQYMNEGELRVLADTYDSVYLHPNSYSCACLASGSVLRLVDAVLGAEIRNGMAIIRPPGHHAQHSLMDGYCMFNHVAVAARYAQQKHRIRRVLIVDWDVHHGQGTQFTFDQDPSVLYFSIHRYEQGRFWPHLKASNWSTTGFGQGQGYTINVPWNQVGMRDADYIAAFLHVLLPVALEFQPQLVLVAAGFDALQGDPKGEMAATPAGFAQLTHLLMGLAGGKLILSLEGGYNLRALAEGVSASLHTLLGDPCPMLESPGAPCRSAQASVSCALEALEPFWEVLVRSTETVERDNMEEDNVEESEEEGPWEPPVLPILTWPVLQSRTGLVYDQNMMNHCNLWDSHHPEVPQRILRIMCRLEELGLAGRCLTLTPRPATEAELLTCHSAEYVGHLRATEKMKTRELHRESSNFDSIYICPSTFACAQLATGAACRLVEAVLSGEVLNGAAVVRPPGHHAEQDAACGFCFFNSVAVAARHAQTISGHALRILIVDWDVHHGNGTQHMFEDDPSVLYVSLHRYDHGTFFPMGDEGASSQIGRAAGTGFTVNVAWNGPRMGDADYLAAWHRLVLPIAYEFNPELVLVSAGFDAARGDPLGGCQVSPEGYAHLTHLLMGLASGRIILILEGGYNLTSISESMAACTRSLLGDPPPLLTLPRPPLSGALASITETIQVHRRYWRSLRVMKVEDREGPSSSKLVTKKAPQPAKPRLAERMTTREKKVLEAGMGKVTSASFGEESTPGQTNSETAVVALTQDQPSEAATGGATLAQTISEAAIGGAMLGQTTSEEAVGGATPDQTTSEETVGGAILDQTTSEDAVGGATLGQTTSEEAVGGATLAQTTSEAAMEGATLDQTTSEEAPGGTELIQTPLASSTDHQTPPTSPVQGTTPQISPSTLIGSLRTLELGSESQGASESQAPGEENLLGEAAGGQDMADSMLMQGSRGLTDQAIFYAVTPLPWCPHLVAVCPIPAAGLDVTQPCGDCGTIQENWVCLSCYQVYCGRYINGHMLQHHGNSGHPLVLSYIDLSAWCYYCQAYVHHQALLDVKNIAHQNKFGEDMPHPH
UniProt P23258: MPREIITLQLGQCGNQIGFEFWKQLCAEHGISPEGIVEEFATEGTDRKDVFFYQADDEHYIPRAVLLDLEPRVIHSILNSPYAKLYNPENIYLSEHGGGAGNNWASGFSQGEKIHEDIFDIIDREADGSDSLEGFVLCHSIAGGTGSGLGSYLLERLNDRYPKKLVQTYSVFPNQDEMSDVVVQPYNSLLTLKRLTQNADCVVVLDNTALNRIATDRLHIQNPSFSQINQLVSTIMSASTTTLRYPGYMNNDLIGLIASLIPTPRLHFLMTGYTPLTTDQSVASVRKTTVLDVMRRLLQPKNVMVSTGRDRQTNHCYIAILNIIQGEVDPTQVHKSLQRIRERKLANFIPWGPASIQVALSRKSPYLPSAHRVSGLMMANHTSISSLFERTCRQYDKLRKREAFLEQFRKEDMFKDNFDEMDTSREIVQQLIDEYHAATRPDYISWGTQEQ
UniProt Q9BSJ2: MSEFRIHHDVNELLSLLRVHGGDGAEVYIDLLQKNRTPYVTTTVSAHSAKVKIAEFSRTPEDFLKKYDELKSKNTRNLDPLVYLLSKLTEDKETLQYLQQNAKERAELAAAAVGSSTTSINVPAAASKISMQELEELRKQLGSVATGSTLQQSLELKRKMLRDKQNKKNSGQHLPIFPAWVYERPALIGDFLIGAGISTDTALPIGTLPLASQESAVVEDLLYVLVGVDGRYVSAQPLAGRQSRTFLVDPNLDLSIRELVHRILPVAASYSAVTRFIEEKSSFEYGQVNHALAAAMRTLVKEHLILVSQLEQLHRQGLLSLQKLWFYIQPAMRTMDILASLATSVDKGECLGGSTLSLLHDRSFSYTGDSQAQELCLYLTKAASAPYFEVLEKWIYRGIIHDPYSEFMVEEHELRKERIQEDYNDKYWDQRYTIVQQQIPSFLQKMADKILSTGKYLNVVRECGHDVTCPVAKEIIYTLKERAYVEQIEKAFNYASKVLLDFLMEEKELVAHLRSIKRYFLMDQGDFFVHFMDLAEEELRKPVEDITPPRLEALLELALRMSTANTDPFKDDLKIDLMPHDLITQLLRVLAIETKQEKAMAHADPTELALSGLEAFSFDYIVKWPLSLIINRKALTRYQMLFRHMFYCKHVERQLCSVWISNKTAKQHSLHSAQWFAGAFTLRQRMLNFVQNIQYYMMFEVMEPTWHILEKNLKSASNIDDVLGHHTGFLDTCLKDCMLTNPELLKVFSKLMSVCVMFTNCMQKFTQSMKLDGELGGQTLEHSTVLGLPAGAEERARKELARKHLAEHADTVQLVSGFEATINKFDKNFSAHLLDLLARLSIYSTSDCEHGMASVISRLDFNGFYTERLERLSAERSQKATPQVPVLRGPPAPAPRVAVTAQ
UniProt Q96CW5: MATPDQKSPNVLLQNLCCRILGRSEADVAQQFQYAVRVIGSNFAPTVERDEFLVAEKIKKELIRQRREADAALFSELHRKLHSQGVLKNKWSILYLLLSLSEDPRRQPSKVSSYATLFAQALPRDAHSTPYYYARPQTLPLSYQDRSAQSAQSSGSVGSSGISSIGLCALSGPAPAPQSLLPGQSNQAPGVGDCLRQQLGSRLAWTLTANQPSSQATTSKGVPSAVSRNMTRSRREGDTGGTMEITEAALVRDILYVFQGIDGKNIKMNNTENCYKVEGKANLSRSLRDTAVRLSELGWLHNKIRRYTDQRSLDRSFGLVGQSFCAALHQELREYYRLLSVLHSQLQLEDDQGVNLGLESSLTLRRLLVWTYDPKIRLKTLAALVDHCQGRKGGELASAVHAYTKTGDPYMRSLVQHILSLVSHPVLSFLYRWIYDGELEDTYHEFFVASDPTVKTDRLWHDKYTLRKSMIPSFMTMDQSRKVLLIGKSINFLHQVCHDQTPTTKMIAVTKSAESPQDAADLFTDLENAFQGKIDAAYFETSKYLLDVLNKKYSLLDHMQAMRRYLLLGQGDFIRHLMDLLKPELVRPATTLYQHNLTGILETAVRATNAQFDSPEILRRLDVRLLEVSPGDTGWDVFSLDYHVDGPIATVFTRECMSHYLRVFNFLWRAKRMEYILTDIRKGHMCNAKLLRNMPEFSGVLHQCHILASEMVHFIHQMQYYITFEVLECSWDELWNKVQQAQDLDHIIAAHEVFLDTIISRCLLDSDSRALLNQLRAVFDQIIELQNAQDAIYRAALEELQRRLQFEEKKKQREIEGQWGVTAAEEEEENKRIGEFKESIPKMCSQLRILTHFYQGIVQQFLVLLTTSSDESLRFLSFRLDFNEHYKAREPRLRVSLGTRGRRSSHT

These substances were tested against T1, SIRT4-eGFP (human) (UniProt Q9Y6E7) (assay: affinity purification with mass spectrometry; anti-eGFP nanobody co-immunoprecipitation from total cell lysates of HEK293 cells stably expressing SIRT4-eGFP or eGFP (n = 4 each), arrested in G2 by Ro3306 and released into mitosis for 45 min; mass spectrometry).
T1 sequence: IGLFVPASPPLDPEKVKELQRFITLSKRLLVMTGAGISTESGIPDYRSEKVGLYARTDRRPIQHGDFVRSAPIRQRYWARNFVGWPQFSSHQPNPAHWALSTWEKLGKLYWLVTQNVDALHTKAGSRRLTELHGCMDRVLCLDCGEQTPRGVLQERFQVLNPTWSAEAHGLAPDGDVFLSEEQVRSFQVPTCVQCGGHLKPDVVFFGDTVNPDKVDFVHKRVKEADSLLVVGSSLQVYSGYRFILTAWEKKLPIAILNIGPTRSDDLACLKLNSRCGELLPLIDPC

Row | Substance | binding
1 | ATP5F1A (from UniProt P25705 44-553) | binds
2 | IDE (from UniProt P14735 1-1019) (enzyme) | binds
3 | histone deacetylase 6 (from UniProt Q9UBN7 1-1215) (enzyme) | binds
4 | α-tubulin (human (endogenous in HEK293)) | binds
5 | γ-tubulin (from UniProt P23258) | binds

Now from value to substance:

Row | binding | Substance
6 | binds | TUBGCP2 (from UniProt Q9BSJ2 1-902)
7 | binds | Tubulin Gamma Complex Associated Protein 3 (from UniProt Q96CW5 1-907)
8 | binds | β-tubulin (human (endogenous in HEK293))
